The experiment deals with CCDC188 (mouse (endogenous in testis)). The experiment can be described thus: affinity purification with mass spectrometry; IP-MS in mouse testis protein lysates with anti-CCDC188 antibody or IgG antibody; two independent replicates for each group.

Results are given in words; binding and its absence hold for the method and conditions named. Binding seen in cells or lysates may run through a third protein. A yes stands for co-enrichment or nearness to the bait. Other partners may have been found.

B1: PMFBP1 (protein, UniProt Q9WVQ0 1-1022)
chain: MLKLKGELRTAKGLKNEAGERDRDVSNLNSKLLSLQLDIKNLHDVCKRQGKTLQENQLCVEEAMLKANHNKKQAQTLVFTDNQMDFRVNKQYHLRQLQQLKKKLLTLQQELEFRTQELQASYCSLLQYQSILEKQTSDLLVLHRHCKLKEDEVILYEEEMGNHSKSTGEKLHLAQEQLALAGDKILSLERSLNLYRDKYQTSLSNIELLECQVKMLEGELSGLIGQDPENKGDHPKVRIYTSPCVIQEHQETLKRLSEVWQKVSEQDDLIQELRNKLACSNSLVLEREEALIKLQAEFASYTATHRHPPTSSEDCEDITKILKHLQEQKDSQCLHVEEYQNLVKDLRMELEAVSEQKKKIMKDMMKLELDLHGLREETSCVIEKKDKETVFLQYRLQDLQQQYTESQKLSLKKDKLLQDKDERLHELEKNLMQVQNSLREKEAELEKLQCTTKELDTSLQEARQSTSKIDCEALRAEIQKLKDSLEEAREQLKVSDQNLTQSKEEAHLSASSLEDAHRKIENCLLQDKQKEEVIKDLQSQLHKLQKESSKIEEERKHNRQRLQELSSELSEGQRRLSNAEKEKSLLQKTLDEDEKKIDELFHSTQVSEQKQRELTNSIRKLEEELLEIKGLLEEKREQLKKSKEQEKALEEEIEALRQEAKRKEKMAKEHLRKLDEEKENLQAELTSRSSHLDSSLNKYNSSQKVIQELNAEIARQKDSIMILQTQLDSAIQKEKNCFQNMVSKEAYEELVRKSGNCQDDLTQALEKLTQATSETKSLNRSLQQTQERKAQLEDEIAAYEERMKKLNMELKKLQGFQQQSEQEVHNFDKKLEEMSNQVLQWQRQHQSDLKMLAAKESQLREFQEEMATLRESLLADEKEPYSPPAKLTPKETCRHHRENDQIMNNVEQWAKEQKIANEKLGNKLREQVKYIAKLTGEKDHLHNVMVHLQQENKKLKNEIEEKKLKAGNPRICVKAFPPNKLEPSQKGKLCCALGWRGIPQDLTPKTDHKYMGLPHSSGSSYC
For B1, the binding result is “binds”.

B2: SUN5 (protein, UniProt Q9DA32 1-373)
chain: MPRTRNIGALCTLPEDTTHSGRPRRGVQRSYISRMAEPAPANMNDPLLLPLRMNTPGLSLVQILLGYMSWLTYLACFLRTQTQQVFLNTCRCKLFCQKVMEKMGLLVLCVFGFWMFSMHLPSKVEVWQDDSINGPLQSLRMYQEKVRHHTGEIQDLRGSMNQLIAKLQKMEAISDEQKMAQKIMKMIQGDYIEKPDFALKSIGASIDFEHTSATYNHDKARSYWNWIRLWNYAQPPDVILEPNVTPGNCWAFASDRGQVTIRLAQKVYLSNITLQHIPKTISLSGSPDTAPKDIVIYGLESLPREEVFLGAFQFQPENVIQMFQLQNLPPRSFAAVKVKISSNWGNPRFTCMYRVRVHGSVTPPKDSHLEPLS
For B2, the binding result was “binds”.
